Values of other authors as cited in patent US6479487B1, “6, 9-disubstituted 2-[trans-(4-aminocyclohexyl)amino] purines” (Aventis Pharmaceuticals Inc., priority 1998, dated 2002).

Test system: 60 human tumour cell lines
Settings: read-out: average IC50, proliferation of 60 human tumour cell lines; NCI screen, nine tumour types; Meijer et al.; cited from earlier work

SMILES: CCC(CO)Nc1nc(NCc2ccccc2)c2ncn(C(C)C)c2n1 (stereo not shown) [roscovitine, 2-(1-ethyl-2-hydroxyethylamino)-6-benzylamino-9-isopropylpurine]
- IC50: 16 µM
